These results are taken from patent US5736517A (Biomeasure, Inc., priority 1993, dated 1998).

The nature of series [1]: general procedure: Boc solid-phase peptide synthesis; Benzhydrylamine-polystyrene resin; diisopropylcarbodiimide (hydroxybenzotriazole for some residues). Particulars: whole synthesis, scale 0.5 mmole.
A short description of series [2]: general procedure: Boc solid-phase peptide synthesis; Methylbenzhydrylamine-polystyrene resin; diisopropylcarbodiimide (hydroxybenzotriazole for some residues). Conditions: whole synthesis, scale 0.73 mmol.

Take “pGlu-Gln-Trp-Ala-Val-Gly-His-Leuψ[CH2NH]Leu-NH2”: in series [1], the isolated mass was determined as 60 mg.
Take pGlu-Gln-Trp-Ala-Val-Gly-His-Sta-NH2: the isolated mass in series [2] was 77 mg.
